Laboratory results published in PMC9265697.
These are yes or no findings as the source states them, for the method shown. In cells and extracts the contact can be indirect. A yes stands for co-enrichment or nearness to the bait. Other partners may have been found.

The chains behind the UniProt entries cited, without tags or fusion partners.
UniProt Q64727: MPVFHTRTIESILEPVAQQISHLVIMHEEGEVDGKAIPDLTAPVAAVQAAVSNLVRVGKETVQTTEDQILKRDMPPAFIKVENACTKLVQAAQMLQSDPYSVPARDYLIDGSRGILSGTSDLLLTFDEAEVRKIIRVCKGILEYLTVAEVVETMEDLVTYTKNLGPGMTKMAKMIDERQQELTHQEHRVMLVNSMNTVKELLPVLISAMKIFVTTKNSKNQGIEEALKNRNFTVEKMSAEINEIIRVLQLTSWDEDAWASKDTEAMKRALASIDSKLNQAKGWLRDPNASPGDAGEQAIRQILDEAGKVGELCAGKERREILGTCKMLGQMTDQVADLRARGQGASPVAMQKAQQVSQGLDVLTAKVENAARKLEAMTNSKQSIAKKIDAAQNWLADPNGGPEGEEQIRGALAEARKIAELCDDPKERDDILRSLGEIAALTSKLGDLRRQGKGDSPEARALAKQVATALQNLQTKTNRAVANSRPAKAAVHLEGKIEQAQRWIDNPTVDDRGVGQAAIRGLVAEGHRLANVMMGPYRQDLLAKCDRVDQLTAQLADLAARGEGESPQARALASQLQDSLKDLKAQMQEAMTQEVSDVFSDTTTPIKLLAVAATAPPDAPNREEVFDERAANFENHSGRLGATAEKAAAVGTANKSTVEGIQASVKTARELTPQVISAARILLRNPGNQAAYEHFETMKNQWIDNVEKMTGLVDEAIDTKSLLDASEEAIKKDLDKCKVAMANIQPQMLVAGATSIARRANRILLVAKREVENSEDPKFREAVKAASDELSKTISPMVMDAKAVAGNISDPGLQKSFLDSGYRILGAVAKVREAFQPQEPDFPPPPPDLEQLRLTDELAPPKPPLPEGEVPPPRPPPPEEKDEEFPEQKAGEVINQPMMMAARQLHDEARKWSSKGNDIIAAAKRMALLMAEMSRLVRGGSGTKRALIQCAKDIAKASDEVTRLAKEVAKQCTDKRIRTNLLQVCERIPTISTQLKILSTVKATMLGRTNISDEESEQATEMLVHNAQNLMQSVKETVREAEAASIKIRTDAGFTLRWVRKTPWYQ

B1: Psmd12 (protein, UniProt Q9D8W5 1-456)
chain: MADGGSERADGRIVKMEVDYSATVDQRLPECEKLAKEGRLQEVIETLLSLEKQTRTASDMVSTSRILVAVVKMCYEAKEWDLLNENIMLLSKRRSQLKQAVAKMVQQCCTYVEEITDLPVKLRLIDTLRMVTEGKIYVEIERARLTKTLATIKEQNGDVKEAASILQELQVETYGSMEKKERVEFILEQMRLCLAVKDYIRTQIISKKINTKFFQEENTENLKLKYYNLMIQLDQHEGSYLSICKHYRAIYDTPCIQAESDKWQQALKSVVLYVILAPFDNEQSDLVHRISSDKKLEEIPKYKDLLKLFTTMELMRWSTLVEDYGVELRKGSSETPATDVFSSTEEGEKRWKDLKSRVVEHNIRIMAKYYTRITMKRMAQLLDLSVDESEAFLSNLVVNKTIFAKVDRLAGVINFQRPKDPNNLLNDWSQKLNSLMSLVNKTTHLIAKEEMIHNLQ
B2: Psmd13 (protein, UniProt Q9WVJ2 1-376)
chain: MKDVPAFLQQSQSSGPGQAAVWHRLEELYTKKLWHQLTLEVLDFVQDPCFAQGDGLIKLYENFISEFEHRVNPLSLVEIILHVVRQMTDPNVALTFLEKTREKVKSSDEAVILCKTAIGALKLNIGDLQATKETIEDVEEMLNNLPGVTSVHSRFYDLSSKYYQTIGNHASYYKDALRFLGCVDIKDLPVSEQQERAFTLGLAGLLGEGVFNFGELLMHPVLESLRDTDRQWLIDTLYAFNSGAVDRFQTLKCAWGQQPDLAANEAQLLRKIQLLCLMEMTFTRPANHRQLTFEEIAKSAKITVNKVELLVMKALSVGLVRGSIDEVDKRVHMTWVQPRVLDLQQIKGMKDRLELWCTDVKSMEMLVEHQAQDILT
B3: ubiquitin carboxy-terminal hydrolase type 3 (protein, UniProt Q9JKB1 1-230)
chain: MEGQRWLPLEANPEVTNQFLKQLGLHPNWQFVDVYGMEPELLSMVPRPVCAVLLLFPITEKYEVFRTEEEEKIKSQGQDVTSSVYFMKQTISNACGTIGLIHAIANNKDKMHFESGSTLKKFLEESVSMSPEERAKFLENYDAIRVTHETSAHEGQTEAPSIDEKVDLHFIALVHVDGHLYELDGRKPFPINHGKTSDETLLEDAIEVCKKFMERDPDELRFNAIALSAA

Target: Vinculin (mouse (endogenous in testicular cells and primary spermatocytes)) (UniProt Q64727)
Assay: affinity purification with mass spectrometry; co-IP of endogenous VCL with polyclonal anti-Vinculin antibody (ab91459) and Protein A Dynabeads, overnight at 4 °C, from whole-cell/cytoplasmic (Cl) and nuclear (Nu) extracts of mouse testicular single-cell suspension and FACS-sorted primary (pachytene) spermatocytes; rabbit IgG isotype control; on-bead trypsin digest, nLC-MS2, label-free quantification

Row | binding | Binder
1 | binds | B1
2 | binds | B2
3 | binds | B3
